Experimental data as given in paper PMC7619535.
No constants are given. Whether binding was seen depends on the method and setting. In cells and extracts the contact can be indirect. Some binding calls cover weakened binding; strength is not graded here.

Amino acid sequences for entries named in this document (tags omitted).
UniProt Q8CFN5: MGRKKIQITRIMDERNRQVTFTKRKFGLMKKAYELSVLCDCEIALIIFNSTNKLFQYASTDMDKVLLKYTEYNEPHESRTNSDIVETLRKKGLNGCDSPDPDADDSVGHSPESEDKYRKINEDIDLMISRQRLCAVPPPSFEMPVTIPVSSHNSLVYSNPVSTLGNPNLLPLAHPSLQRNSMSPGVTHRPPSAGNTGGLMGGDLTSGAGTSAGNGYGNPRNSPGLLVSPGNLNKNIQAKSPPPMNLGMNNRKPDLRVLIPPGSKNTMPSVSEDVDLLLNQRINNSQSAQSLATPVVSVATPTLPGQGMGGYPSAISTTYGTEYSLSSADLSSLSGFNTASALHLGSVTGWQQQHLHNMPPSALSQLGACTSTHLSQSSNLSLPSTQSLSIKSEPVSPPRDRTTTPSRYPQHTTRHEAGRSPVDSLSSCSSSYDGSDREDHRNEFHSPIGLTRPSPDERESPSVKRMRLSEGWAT

Target: myocyte enhancer factor 2c (Mef2c) (mouse (endogenous in P12 C57BL/6 cortex)) (UniProt Q8CFN5)
Test: co-IP; nuclear fractions of P12 C57BL/6 mouse cortex in 20 mM Hepes, 90 mM NaCl, 1 mM MgCl2; overnight at 4°C with 8 μg rabbit anti-Mef2c or rabbit IgG isotype control; Dynabeads Protein G; six washes (150 mM NaCl, 1% NP40); Western blot for PGC-1α

binding: binds
B1: peroxisome proliferator-activated receptor-gamma coactivator 1-alpha, long isoform (PGC-1α1) (protein, UniProt O70343 1-797)
chain: MAWDMCSQDSVWSDIECAALVGEDQPLCPDLPELDLSELDVNDLDTDSFLGGLKWCSDQSEIISNQYNNEPANIFEKIDEENEANLLAVLTETLDSLPVDEDGLPSFDALTDGAVTTDNEASPSSMPDGTPPPQEAEEPSLLKKLLLAPANTQLSYNECSGLSTQNHAANHTHRIRTNPAIVKTENSWSNKAKSICQQQKPQRRPCSELLKYLTTNDDPPHTKPTENRNSSRDKCASKKKSHTQPQSQHAQAKPTTLSLPLTPESPNDPKGSPFENKTIERTLSVELSGTAGLTPPTTPPHKANQDNPFKASPKLKPSCKTVVPPPTKRARYSECSGTQGSHSTKKGPEQSELYAQLSKSSGLSRGHEERKTKRPSLRLFGDHDYCQSLNSKTDILINISQELQDSRQLDFKDASCDWQGHICSSTDSGQCYLRETLEASKQVSPCSTRKQLQDQEIRAELNKHFGHPCQAVFDDKSDKTSELRDGDFSNEQFSKLPVFINSGLAMDGLFDDSEDESDKLSYPWDGTQPYSLFDVSPSCSSFNSPCRDSVSPPKSLFSQRPQRMRSRSRSFSRHRSCSRSPYSRSRSRSPGSRSSSRSCYYYESSHYRHRTHRNSPLYVRSRSRSPYSRRPRYDSYEAYEHERLKRDEYRKEHEKRESERAKQRERQKQKAIEERRVIYVGKIRPDTTRTELRDRFEVFGEIEECTVNLRDDGDSYGFITYRYTCDAFAALENGYTLRRSNETDFELYFCGRKQFFKSNYADLDTNSDDFDPASTKSKYDSLDFDSLLKEAQRSLRR
